Source: PubChem BioAssay AID1159584 (Peter MacCallum Cancer Centre, 2016)
Test: 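Knock-downs that harm CDH1-null cells more than parental MCF10A cells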 (primary screen). System: human MCF10A breast epithelial cells, parental and CDH1-null. Reagents: siRNA against human genes. Read-out: 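ATP luminescence (CellTiter-Glo) viability per line relative to mean mock wells over all plates, and the ratio of CDH1-null to parental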. Reading the numbers: CDH1-null / parental viability ratio: higher = CDH1-null cells survive relatively better than parental; CDH1-null viability vs mock: higher = more viable CDH1-null cells.
The deposit covers about 18,000 reagents; shown is an unselected part. Further read-outs or replicates are left out here. Not given: the amount of reagent, the time to read-out.

For EMG1 (GeneID 10436) the deposit lists CDH1-null / parental viability ratio 0.87; CDH1-null viability vs mock (fraction of mock) = 0.4.
With knock-down of IL2 (GeneID 3558), the screen gave CDH1-null / parental viability ratio 1.22; CDH1-null viability vs mock (fraction of mock) = 1.06.
Knock-down of AMER3 (GeneID 205147) came out at: CDH1-null / parental viability ratio 1.09; CDH1-null viability vs mock (fraction of mock) = 1.
DHX37 (GeneID 57647) gave CDH1-null / parental viability ratio 0.91; CDH1-null viability vs mock (fraction of mock) = 0.99.
For NYX (GeneID 60506) the deposit lists CDH1-null / parental viability ratio 0.97; CDH1-null viability vs mock (fraction of mock) = 0.33.
Knock-down of MNT (GeneID 4335) resulted in: CDH1-null / parental viability ratio 1.07; CDH1-null viability vs mock (fraction of mock) = 0.77.
After knock-down of MYCBPAP (GeneID 84073), the screen gave CDH1-null / parental viability ratio 0.81; CDH1-null viability vs mock (fraction of mock) = 0.44.
For CDIP1 (GeneID 29965), the values are CDH1-null / parental viability ratio 1.11; CDH1-null viability vs mock (fraction of mock) = 0.97.
Knock-down of MYOD1 (GeneID 4654) came out at: CDH1-null / parental viability ratio 0.93; CDH1-null viability vs mock (fraction of mock) = 0.98.
ZMYND15 (GeneID 84225) scored CDH1-null / parental viability ratio 1.11; CDH1-null viability vs mock (fraction of mock) = 0.81.
PRH2 (GeneID 5555) scored CDH1-null / parental viability ratio 1.05; CDH1-null viability vs mock (fraction of mock) = 0.81.
For TBC1D14 (GeneID 57533) the deposit lists CDH1-null / parental viability ratio 0.87; CDH1-null viability vs mock (fraction of mock) = 0.45.

2 successive entries already listed:
PRH2 (GeneID 5555) | CDH1-null / parental viability ratio = 1.05; CDH1-null viability vs mock (fraction of mock) = 0.81
TBC1D14 (GeneID 57533) | CDH1-null / parental viability ratio = 0.87; CDH1-null viability vs mock (fraction of mock) = 0.45

Continued:
Against CLEC3A (GeneID 10143) the deposit lists CDH1-null / parental viability ratio 1.04; CDH1-null viability vs mock (fraction of mock) = 0.58.
Against KCNMB2 (GeneID 10242), the values are CDH1-null / parental viability ratio 1.13; CDH1-null viability vs mock (fraction of mock) = 0.88.
Silencing of HAS1 (GeneID 3036) gave: CDH1-null / parental viability ratio 1.48; CDH1-null viability vs mock (fraction of mock) = 0.68.
With knock-down of TENT5D (GeneID 169966), the record shows CDH1-null / parental viability ratio 0.85; CDH1-null viability vs mock (fraction of mock) = 0.61.
After knock-down of DHCR7 (GeneID 1717), the screen gave CDH1-null / parental viability ratio 0.75; CDH1-null viability vs mock (fraction of mock) = 0.56.
Knock-down of KRTCAP2 (GeneID 200185) gave: CDH1-null / parental viability ratio 0.69; CDH1-null viability vs mock (fraction of mock) = 0.58.
Against SAMHD1 (GeneID 25939) the deposit lists CDH1-null / parental viability ratio 1.1; CDH1-null viability vs mock (fraction of mock) = 0.92.
Knock-down of PECR (GeneID 55825) came out at: CDH1-null / parental viability ratio 1.04; CDH1-null viability vs mock (fraction of mock) = 1.06.
For SPATA4 (GeneID 132851), the values are CDH1-null / parental viability ratio 0.77; CDH1-null viability vs mock (fraction of mock) = 0.76.
After knock-down of DPYD (GeneID 1806) the results were CDH1-null / parental viability ratio 0.83; CDH1-null viability vs mock (fraction of mock) = 0.76.
GNAL (GeneID 2774) scored CDH1-null / parental viability ratio 0.77; CDH1-null viability vs mock (fraction of mock) = 0.5.
Depletion of ELAC2 (GeneID 60528) resulted in: CDH1-null / parental viability ratio 0.71; CDH1-null viability vs mock (fraction of mock) = 0.4.
